Experimental data taken from PMC11423678.

By UniProt entry, the sequences of proteins in these tests, tags left out.
UniProt P53855: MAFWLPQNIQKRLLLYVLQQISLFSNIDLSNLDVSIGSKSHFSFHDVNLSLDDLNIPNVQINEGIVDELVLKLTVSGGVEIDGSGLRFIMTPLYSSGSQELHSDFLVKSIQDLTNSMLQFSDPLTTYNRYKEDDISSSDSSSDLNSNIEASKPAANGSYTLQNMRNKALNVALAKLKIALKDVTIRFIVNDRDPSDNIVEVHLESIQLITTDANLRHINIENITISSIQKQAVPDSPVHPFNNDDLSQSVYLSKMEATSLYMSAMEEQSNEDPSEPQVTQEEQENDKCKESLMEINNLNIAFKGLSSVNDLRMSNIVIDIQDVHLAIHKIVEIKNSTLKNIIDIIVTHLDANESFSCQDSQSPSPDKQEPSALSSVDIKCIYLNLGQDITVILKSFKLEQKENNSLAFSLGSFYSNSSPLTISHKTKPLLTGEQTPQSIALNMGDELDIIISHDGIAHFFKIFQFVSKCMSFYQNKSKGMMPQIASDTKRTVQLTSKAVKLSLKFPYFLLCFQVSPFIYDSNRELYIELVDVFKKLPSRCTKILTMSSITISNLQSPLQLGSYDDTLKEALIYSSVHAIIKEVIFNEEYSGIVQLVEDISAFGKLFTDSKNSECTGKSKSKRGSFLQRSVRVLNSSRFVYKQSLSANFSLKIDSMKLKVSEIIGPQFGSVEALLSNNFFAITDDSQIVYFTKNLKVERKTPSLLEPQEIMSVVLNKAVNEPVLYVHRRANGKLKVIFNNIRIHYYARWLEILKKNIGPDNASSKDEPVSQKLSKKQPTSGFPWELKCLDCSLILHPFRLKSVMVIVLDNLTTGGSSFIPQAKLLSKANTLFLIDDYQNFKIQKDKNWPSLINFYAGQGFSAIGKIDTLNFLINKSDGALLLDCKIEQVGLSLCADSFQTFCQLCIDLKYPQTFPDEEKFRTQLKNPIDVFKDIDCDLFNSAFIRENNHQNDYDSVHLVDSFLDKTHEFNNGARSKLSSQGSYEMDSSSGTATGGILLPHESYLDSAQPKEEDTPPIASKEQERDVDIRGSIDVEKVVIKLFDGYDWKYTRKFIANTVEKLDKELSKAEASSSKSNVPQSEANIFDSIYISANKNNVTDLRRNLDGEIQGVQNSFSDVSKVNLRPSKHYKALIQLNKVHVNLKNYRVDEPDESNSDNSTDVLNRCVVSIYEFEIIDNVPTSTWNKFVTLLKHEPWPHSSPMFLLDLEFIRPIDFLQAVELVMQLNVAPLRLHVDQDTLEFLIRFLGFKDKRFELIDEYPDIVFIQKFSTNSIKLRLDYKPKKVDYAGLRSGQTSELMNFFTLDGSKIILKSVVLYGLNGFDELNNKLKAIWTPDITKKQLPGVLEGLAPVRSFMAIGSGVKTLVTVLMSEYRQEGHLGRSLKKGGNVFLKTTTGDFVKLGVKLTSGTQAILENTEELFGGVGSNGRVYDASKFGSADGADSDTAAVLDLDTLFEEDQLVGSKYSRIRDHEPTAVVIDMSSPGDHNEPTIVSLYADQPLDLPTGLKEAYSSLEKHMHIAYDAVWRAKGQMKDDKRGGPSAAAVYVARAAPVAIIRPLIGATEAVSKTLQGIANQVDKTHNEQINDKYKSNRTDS
UniProt P38270: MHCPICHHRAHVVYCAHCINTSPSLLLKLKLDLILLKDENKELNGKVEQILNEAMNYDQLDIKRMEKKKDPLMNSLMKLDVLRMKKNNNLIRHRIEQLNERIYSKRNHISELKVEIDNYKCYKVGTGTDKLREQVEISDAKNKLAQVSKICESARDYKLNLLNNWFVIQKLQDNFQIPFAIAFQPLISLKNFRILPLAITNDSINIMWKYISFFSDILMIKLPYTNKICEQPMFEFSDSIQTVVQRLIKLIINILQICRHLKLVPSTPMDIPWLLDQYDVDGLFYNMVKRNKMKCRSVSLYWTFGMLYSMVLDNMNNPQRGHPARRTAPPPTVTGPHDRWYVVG

T1: FLAG-APEX2-NES-Atg8 (strain YFMLY141) (S. cerevisiae) (UniProt P38182)
T1 sequence: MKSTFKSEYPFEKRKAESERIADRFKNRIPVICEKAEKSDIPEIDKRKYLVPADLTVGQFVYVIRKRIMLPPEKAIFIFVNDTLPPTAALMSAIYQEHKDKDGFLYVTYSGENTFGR

T2: Atg9-FLAG-APEX2-NES (strain YFMLY170) (S. cerevisiae) (UniProt Q12142)
T2 sequence: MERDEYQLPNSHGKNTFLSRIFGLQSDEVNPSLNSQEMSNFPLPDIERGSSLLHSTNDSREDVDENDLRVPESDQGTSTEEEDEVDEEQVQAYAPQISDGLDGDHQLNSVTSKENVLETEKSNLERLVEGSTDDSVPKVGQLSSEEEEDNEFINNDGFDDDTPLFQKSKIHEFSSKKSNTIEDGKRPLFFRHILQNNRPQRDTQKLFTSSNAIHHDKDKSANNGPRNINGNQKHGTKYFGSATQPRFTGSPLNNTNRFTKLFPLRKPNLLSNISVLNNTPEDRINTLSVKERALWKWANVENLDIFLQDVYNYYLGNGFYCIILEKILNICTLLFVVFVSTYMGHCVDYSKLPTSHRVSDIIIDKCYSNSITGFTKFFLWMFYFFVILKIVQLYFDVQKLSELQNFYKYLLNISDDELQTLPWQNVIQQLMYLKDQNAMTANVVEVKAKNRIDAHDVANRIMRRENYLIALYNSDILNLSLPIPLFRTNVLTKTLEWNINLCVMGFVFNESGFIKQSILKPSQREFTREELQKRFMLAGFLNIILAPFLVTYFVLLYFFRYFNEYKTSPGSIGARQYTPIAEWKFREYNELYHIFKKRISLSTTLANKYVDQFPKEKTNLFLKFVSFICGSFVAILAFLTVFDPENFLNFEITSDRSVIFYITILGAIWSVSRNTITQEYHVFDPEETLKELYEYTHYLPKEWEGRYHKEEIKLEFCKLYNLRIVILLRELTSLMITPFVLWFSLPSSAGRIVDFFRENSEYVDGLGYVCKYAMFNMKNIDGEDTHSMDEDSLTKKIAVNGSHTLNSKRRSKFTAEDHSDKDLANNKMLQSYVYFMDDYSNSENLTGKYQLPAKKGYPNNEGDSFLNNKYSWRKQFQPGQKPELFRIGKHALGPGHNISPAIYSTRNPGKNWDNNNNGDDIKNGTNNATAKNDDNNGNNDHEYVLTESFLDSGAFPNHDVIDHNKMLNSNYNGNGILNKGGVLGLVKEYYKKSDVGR


These molecules were tested against T1, FLAG-APEX2-NES-Atg8 (strain YFMLY141) (S. cerevisiae) (assay: proximity labelling; APEX2 fused to the bait at endogenous level in YSBN5 cells; biotin-free SMD (growing) or 1 h nitrogen starvation in SD-N; cells snap frozen in LN2, thawed on ice, BP and H2O2 for 1 min at RT; streptavidin agarose, on-bead trypsin digestion, DIA LC-MS/MS; control without H2O2; hits at p < 0.05).

Molecule | binding
Act1 (from UniProt P60010 1-375) | no binding
Atg3 (enzyme, UniProt P40344 1-310) MIRSTLSSWREYLTPITHKSTFLTTGQITPEEFVQAGDYLCHMFPTWKWNEESSDISYRDFLPKNKQFLIIRKVPCDKRAEQCVEVEGPDVIMKGFAEDGDEDDVLEYIGSETEHVQSTPAGGTKDSSIDDIDELIQDMEIKEEDENDDTEEFNAKGGLAKDMAQERYYDLYIAYSTSYRVPKMYIVGFNSNGSPLSPEQMFEDISADYRTKTATIEKLPFYKNSVLSVSIHPCKHANVMKILLDKVRVVRQRRRKELQEEQELDGVGDWEDLQDDIDDSLRVDQYLIVFLKFITSVTPSIQHDYTMEGW | binds
Atg19 (receptor, UniProt P35193 1-415) MNNSKTNQQMNTSMGYPLTVYDECNKFQLIVPTLDANIMLWCIGQLSLLNDSNGCKHLFWQPNDKSNVRILLNNYDYGHLFKYLQCQRKCSVYIGEGTLKKYNLTISTSFDNFLDLTPSEEKESLCREDAHEDPVSPKAGSEEEISPNSTSNVVVSRECLDNFMKQLLKLEESLNKLELEQKVTNKEPNHRISGTIDIPEDRSELVNFFTELKTVKQLEDVFQRYHDYERLSQECDSKTEIASDHSKKETKIEVEPPNERSLQITMNQRDNSLYFQLFNNTNSVLAGNCKLKFTDAGDKPTTQIIDMGPHEIGIKEYKEYRYFPYALDLEAGSTIEIENQYGEVIFLGKYGSSPMINLRPPSRLSAESLQASQEPFYSFQIDTLPELDDSSIISTSISLSYDGDDNEKALTWEEL | binds
Ede1 (protein, UniProt P34216 1-1381) MASITFRTPLSSQEQAFYNQKFHQLDTEDLGVVTGEAVRPLFASSGLPGQLLSQVWATVDIDNKGFLNLNEFSAALRMIAQLQNAPNQPISAALYESTPTQLASFSINQNPAPMQSGSATGNTNNTDIPALSSNDIAKFSQLFDRTAKGAQTVAGDKAKDIFLKARLPNQTLGEIWALCDRDASGVLDKSEFIMAMYLIQLCMSHHPSMNTPPAVLPTQLWDSIRLEPVVVNQPNRTTPLSANSTGVSSLTRHSTISRLSTGAFSNAASDWSLSFEKKQQFDAIFDSLDKQHAGSLSSAVLVPFFLSSRLNQETLATIWDLADIHNNAEFTKLEFAIAMFLIQKKNAGVELPDVIPNELLQSPALGLYPPNPLPQQQSAPQIAIPSRASKPSLQDMPHQVSAPAVNTQPTVPQVLPQNSNNGSLNDLLALNPSFSSPSPTKAQTVVQNNTNNSFSYDNNNGQATLQQQQPQQPPPLTHSSSGLKKFTPTSNFGQSIIKEEPEEQEQLRESSDTFSAQPPPVPKHASSPVKRTASTTLPQVPNFSVFSMPAGAATSAATGAAVGAAVGAAALGASAFSRSSNNAFKNQDLFADGEASAQLSNATTEMANLSNQVNSLSKQASITNDKKSRATQELKRVTEMKNSIQIKLNNLRSTHDQNVKQTEQLEAQVLQVNKENETLAQQLAVSEANYHAAESKLNELTTDLQESQTKNAELKEQITNLNSMTASLQSQLNEKQQQVKQERSMVDVNSKQLELNQVTVANLQKEIDGLGEKISVYLTKQKELNDYQKTVEEQHAQLQAKYQDLSNKDTDLTDREKQLEERNRQIEEQENLYHQHVSKLQEMFDDLSQRKASFEKADQELKERNIEYANNVRELSERQMNLAMGQLPEDAKDIIAKSASNTDTTTKEATSRGNVHEDTVSKFVETTVENSNLNVNRVKDDEEKTERTESDVFDRDVPTLGSQSDSENANTNNGTQSGNETANPNLTETLSDRFDGDLNEYGIPRSQSLTSSVANNAPQSVRDDVELPETLEERDTINNTANRDNTGNLSHIPGEWEATPATASTDVLSNETTEVIEDGSTTKRANSNEDGESVSSIQESPKISAQPKAKTINEEFPPIQELHIDESDSSSSDDDEFEDTREIPSATVKTLQTPYNAQPTSSLEIHTEQVIKYPAPGTSPSHNEGNSKKASTNSILPVKDEFDDEFAGLEQAAVEEDNGADSESEFENVANAGSMEQFETIDHKDLDDELQMNAFTGTLTSSSNPTIPKPQVQQQSTSDPAQVSNDEWDEIFAGFGNSKAEPTKVATPSIPQQPIPLKNDPIVDASLSKGPIVNRGVATTPKSLAVEELSGMGFTEEEAHNALEKCNWDLEAATNFLLDSA | binds

The molecules below were run against T2, Atg9-FLAG-APEX2-NES (strain YFMLY170) (S. cerevisiae) in the same assay as above.

binding | Molecule
binds | Atg2 (from UniProt P53855 1-1592)
binds | Atg14 (from UniProt P38270 1-344)
binds | Atg21 (protein, UniProt Q02887 1-496) MKVLQFNQDATCCVVAASSHQISIFNCDPFGKCFEIDTKNSKKKTSNNNGSASNSESRNNEESILITNGSRDRTDAEEEEDNEDNALVTGNILKEGEFVIEMLFSTSLIAIADRGQGLNKGKKLKIVNTKRKCTICEIVFPHEIVDVVMNRKRMCVLLESDQIFIYDISCMKPLETIDLWEDHYKRSQANSFSNASNTGTLEGDSANLNRVATNLLANATQKSVNGSNPSVRTRRNSLRSKIRPRMVLSNDDRSILCFTAYSSPKKNKPNSEALYDVVIYDTLNVTPVNYLNSVHKGNVACLAVSHDGKLLATASDKGTIIRVFHTGVDSDYMSSRSLFKEFRRGTRLCNLYQLAFDKSMTMIGCVGDTDTIHLFKLDDASNSLPGDNSSNGHWNEEEYILASNSNPSMGTPKEIPLSKPRIANYFSKKIKSSIPNQNLSRNFAYITVNESNRSCLGFPDEFPNQVYIASDDGTFSIYSIPSKPGECVLTKNNKFT
binds | Atg23 (protein, UniProt Q06671 1-453) MELNQVLEKKEQILQYLGTLVGLHEKALSDVNSASQVTSIRKDITICLNDLCRINDLLVSHDGLLKREIGSLLRDKQELLELNEREQLLWKERKSWHIKQETDAAPADYVIDKDAIITISSHHRTSLNKYIESVGAENTILSNTDDSDAMIEEVQNAESSADQMIRNYKLLQLSHKQAKSEIIRLETLLRDFKKDNKFIEEELKRQSGRIRSEMGNIDFHLSKIEESKHQLMKRIGFESPLTQEKSLSEKIFNLRLSSADEDYNERQTINMKNFVHMKDLIELKIEDLQEQLMRNKNESSTVLTQRELWLDCQKKVGDLESKLITKLRSSSNSKIPPNEMSEMINSTIQYLNNLLDSSDEKLTTTLISNERDVLSKACEELHSESTTAQDGSSALPSKPIDIHKSHKGSNASSNLKQPSTPSFLVASKSPPKIGISESVVNANKNDAISKKVE
binds | Atg27 (protein, UniProt P46989 20-271) LSCEKHDVLKKYQVGKFSSLTSTERDTPPSTTIEKWWINVCEEHNVEPPEECKKNDMLCGLTDVILPGKDAITTQIIDFDKNIGFNVEETESALTLTLKGATWGANSFDAKLEFQCNDNMKQDELTSHTWADKSIQLTLKGPSGCLKSKDDDKKNGDGDNGKDGDSEGKKPAKKAGGTSWFTWLFLYALLFTLIYLMVVSFLNTRGGSFQDFRAEFIQRSTQFLTSLPEFCKEVVSRILGRSTAQRGGYSAV

These are yes or no findings as the source states them, for the method shown. Binding seen in cells or lysates may run through a third protein. Here binding means that the protein was enriched with, or labelled near, the bait; the list need not be complete. For part of these data: No binding means not detected with the bait. Tags and fused reporters may be left off the sequences shown.
